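Uptake of anthrax lethal toxin into cultured cells, read by FRET (460/530 nm ratio) and reported from the 460 nm channel; the cell line is not named here. Each compound was tested as a concentration series from about 0.0005 to 40 µM. The number is the fitted AC50 of the 460 nm signal alone; lower values mean a more potent effect. A falling signal goes with compounds filed as inhibitors or cytotoxic, a rising one with activators or fluorescent compounds (inferred from the filed classes).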

Values are in µM. Common to all entries: measured here: 460 nm channel. This is a side read-out of the assay, for part of the compounds, not drawn at random. A potency from a partial, single-point or poor curve is only a rough figure. The first word of each remark tells which way the curve ran; it can be opposite to the aim of the assay.

{"compound": "COc1ccccc1-n1c(=O)oc2ccc(Cl)cc2c1=O", "AC50 (µM)": "7.943", "curve": "falling, partial curve, poor fit"}
{"compound": "O=C(O)c1sccc1S(=O)(=O)c1ccccc1", "AC50 (µM)": "6.31", "curve": "falling, partial curve, poor fit"}
{"compound": "Cc1ccc(Cl)cc1N1CCN(S(=O)(=O)c2ccc3c(c2)OCCO3)CC1", "AC50 (µM)": "31.62", "curve": "falling, single point"}
{"compound": "COc1ccc(NC(=O)c2cc(-c3ccccc3OC)on2)cc1", "AC50 (µM)": "10", "curve": "falling, partial curve"}
{"compound": "COc1cccc(Cn2c(=O)c(-c3ccc(Cl)cc3)nc3cncnc32)c1", "AC50 (µM)": "12.59", "curve": "rising, partial curve"}
{"compound": "CC(=O)c1ccc(NC(=O)CN2C(=O)COc3ccc(Cl)cc32)cc1", "AC50 (µM)": "15.85", "curve": "falling, partial curve, poor fit"}
{"compound": "C=C(C)COc1ccc(-c2[nH]ncc2-c2ccc(OC)c(OC)c2)c(O)c1", "AC50 (µM)": "12.59", "curve": "falling, partial curve"}
{"compound": "O=C(Oc1ccccc1)N1CCC2(CCCN(c3ccc(-c4ccccc4)cc3)C2)CC1", "AC50 (µM)": "10", "curve": "rising, partial curve"}
{"compound": "C[C@@H](C(=O)Nc1ccc2ccccc2c1)[C@H]1C[C@]1(C)[C@H](NS(=O)(=O)c1ccc(-c2ccccc2)cc1)c1ccccc1", "AC50 (µM)": "10", "curve": "falling, partial curve"}
{"compound": "Nc1nc2ccc(Cl)cc2c2nc(-c3ccco3)nn12", "AC50 (µM)": "12.59", "curve": "falling, partial curve"}
{"compound": "N#Cc1nc(Cc2cccc3ccccc23)oc1NCCN1CCCCC1", "AC50 (µM)": "12.59", "curve": "falling, partial curve"}
{"compound": "Nc1nc(-c2ccc3c(c2)CCCC3)cs1", "AC50 (µM)": "0.00631", "curve": "falling, full curve, poor fit"}
{"compound": "CC1=C(C(=O)Nc2ccccc2)C(c2ccco2)C(C#N)=C(SCc2ccccc2)N1", "stereo": "stereo not drawn", "AC50 (µM)": "7.943", "curve": "falling, partial curve"}
{"compound": "NCCCCCCNS(=O)(=O)c1cccc2c(Cl)cccc12", "AC50 (µM)": "31.62", "curve": "falling, partial curve, poor fit"}
{"compound": "CC(=O)N1C[C@@H]2C[C@H](C1)c1cccc(=O)n1C2", "AC50 (µM)": "12.59", "curve": "falling, single point"}
{"compound": "COc1ccc(-n2nnnc2S(=O)(=O)Cc2ccc(C(=O)O)cc2)cc1", "AC50 (µM)": "19.95", "curve": "falling, single point"}
{"compound": "O=C(CN1C(=O)c2ccccc2S1(=O)=O)Nc1ccc(S(=O)(=O)N2CCCC2)cc1", "AC50 (µM)": "3.162", "curve": "falling, partial curve"}
{"compound": "Cc1cc(C)n(-c2ccc(C(=O)C(C#N)c3nc4ccccc4n3C)cc2)n1", "stereo": "stereo not drawn", "AC50 (µM)": "25.12", "curve": "rising, single point"}
{"compound": "Cc1ccc(N=c2oc3cc(O)ccc3cc2C(N)=O)cc1", "AC50 (µM)": "7.943", "curve": "rising, partial curve"}
{"compound": "CCCCCn1c(SCC#N)nc2cc(C(=O)NC3CCCCC3)ccc2c1=O", "AC50 (µM)": "19.95", "curve": "rising, single point"}
{"compound": "O=C(COc1cccc2cccnc12)Nc1nccs1", "AC50 (µM)": "0.3162", "curve": "falling, full curve, poor fit"}
{"compound": "Cc1cc(NC(=O)CCCC(=O)O)nc(C)n1", "AC50 (µM)": "12.59", "curve": "rising, single point"}
{"compound": "C/C(N)=C(/C#N)C(=O)CSc1nnc(Nc2cccc(C)c2C)s1", "AC50 (µM)": "31.62", "curve": "falling, partial curve, poor fit"}
{"compound": "Cc1csc(NC(=O)C2CCCN(S(=O)(=O)c3ccc(Br)s3)C2)n1", "stereo": "stereo not drawn", "AC50 (µM)": "10", "curve": "falling, partial curve"}
{"compound": "COCCn1c(C(=O)N2CCCC2)cc2c1C[C@H]1CN(C(=O)c3ccccc3)[C@@](Cc3ccc(F)cc3)(C(=O)OC)[C@@H]21", "AC50 (µM)": "15.85", "curve": "rising, partial curve"}
{"compound": "CC(O)c1c(OCc2ccccc2)ncnc1OCc1ccccc1", "stereo": "stereo not drawn", "AC50 (µM)": "25.12", "curve": "falling, single point"}
{"compound": "Oc1ccc(O)cc1", "AC50 (µM)": "12.59", "curve": "falling, single point"}
{"compound": "Cc1cc(=O)n2nc(-c3ccccc3)sc2c1C#N", "AC50 (µM)": "0.005012", "curve": "falling, full curve, poor fit"}
{"compound": "C=CCn1c(SCC(=O)c2cccs2)nc2sc(CC)cc2c1=O", "AC50 (µM)": "3.162", "curve": "falling, single point"}
{"compound": "CC(=O)N1c2ccccc2C(=O)C1N1CCCCC1", "stereo": "stereo not drawn", "AC50 (µM)": "3.162", "curve": "rising, single point"}
{"compound": "O=C=Nc1ccc(Cl)c(Cl)c1", "AC50 (µM)": "25.12", "curve": "falling, partial curve"}
{"compound": "Cc1ccc(C)c(N2CCN(C(=O)c3ccc(NS(=O)(=O)c4c(C)noc4C)cc3)CC2)c1", "AC50 (µM)": "3.981", "curve": "falling, partial curve"}

Repeated from the top, 3 entries:

* COc1ccccc1-n1c(=O)oc2ccc(Cl)cc2c1=O : AC50 7.943 µM (falling, partial curve, poor fit)
* O=C(O)c1sccc1S(=O)(=O)c1ccccc1 : AC50 6.31 µM (falling, partial curve, poor fit)
* Cc1ccc(Cl)cc1N1CCN(S(=O)(=O)c2ccc3c(c2)OCCO3)CC1 : AC50 31.62 µM (falling, single point)

From PubChem BioAssay record AID912 (NCATS, 2007).